Results are given in words; binding and its absence hold for the method and conditions named.

Common to all, as to experiment: Athena autoantigen assay
Assay [1] deals with Scl 70.
Assay [2] addresses Jo 1.
The target in assay [3] is Cent B.
The target in assay [4] is SSA.
Assay [5] has as its target Histone.
Assay [6] has as its target RNP.
Substrate in assay [7]: SSB

B1: CH01 (antibody, V domains shown)
VH: EVQLVESGANVVRPGGSLRLSCKASGFIFENFGFSWVRQAPGKGLQWVAGLNWNGGDTRYADSVKGRFRMSRDNSRNFVYLDMDKVGVDDTAFYYCARGTDYTIDDAGIHYQGSGTFWYFDLWGRGTLVSVSS
VL: EIVLTQSPGTLSLSPGERATLSCRASHNVHPKYFAWYQQKPGQSPRLLIYGGSTRAAGIPGKFSGSGSGTDFTLTISRVDPEDFAVYYCQQYGGSPYTFGQGTKVEI
On to B1, for which the binding result in assay [1] is recorded as “no binding (tested: score 4 at 50 ug/ml)”; in assay [2], “no binding (tested: score 3.5 at 50 ug/ml)”; in assay [3], “no binding (tested: score 22 at 50 ug/ml)”; in assay [4], “no binding (tested: score 8 at 50 ug/ml)”; in assay [5] it was “no binding (tested: score 26 at 50 ug/ml)”; in assay [6], “no binding (tested: score 8 at 50 ug/ml)”. Further, the binding entry in assay [7] is “no binding (tested: score 5.5 at 50 ug/ml)”.
